One experiment addresses T1, S100A11-FLAG (UniProt P31949).
T1 sequence: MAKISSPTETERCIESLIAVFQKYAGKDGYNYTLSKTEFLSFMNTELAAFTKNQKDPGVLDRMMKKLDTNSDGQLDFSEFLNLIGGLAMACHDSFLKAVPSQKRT
The experiment can be described thus: co-IP; Huh7 lysate (200 ug protein) on Protein G Sepharose with anti-FLAG antibody or mouse IgG; lysis buffer 150 mM NaCl, 50 mM Tris-HCl pH 7.4, 1% Triton-X-100, 2 mM EDTA, 10 mM NaF; western blot for S100A10 and S100A11. In general terms: In western blotting, separated proteins are transferred to a membrane and probed.

Chains of the proteins cited; added tags and fusions are not shown.
UniProt P60903: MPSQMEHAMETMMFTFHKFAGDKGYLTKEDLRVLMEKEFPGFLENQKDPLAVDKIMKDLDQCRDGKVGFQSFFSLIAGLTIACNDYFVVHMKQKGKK

Another experiment deals with S100A10-FLAG (UniProt P60903). Described as above.

Positions count from the first letter of the chain named. Results are given in words; binding and its absence hold for the method and conditions named. In cells and extracts the contact can be indirect. For some assays here: Where a sequence is shown, tags or fusion partners need not be part of it.

Regarding S100A10 (from UniProt P60903 1-97), the binding result with S100A11-FLAG is recorded as “no binding”.

B1: S100A11 (protein, UniProt P31949 1-105)
chain: T1 sequence
As to B1, the binding entry with S100A10-FLAG is recorded as “no binding”.

The record behind these values is publication PMC12370981.
